Data as given in PubChem BioAssay AID652259 (Drosophila RNAi Screening Center, 2013)
The deposit covers about 22,000 reagents; shown is an unselected part of those that have a named target and a result. In the full data, 233 (1.1%) were called active. 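Light values are raw, unnormalised plate reads; the ratio scores behind the reporter calls were not deposited.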 Unmarked entries are inactive. Reagents against one gene are numbered here. A plus sign joins genes that one reagent is predicted to hit. The record does not give: the amount of reagent, the time to read-out, the dose of the treatment.

Assay: 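Knock-downs that push a Wingless-driven reporter up or down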 (primary screen)
Cells: Drosophila clone 8 imaginal disc epithelial cells
Reagents: long dsRNA against Drosophila genes
Challenge: pathway stimulated by co-transfected Wingless expression plasmid
Measurement: 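Dual luciferase reads per well after Wingless plasmid stimulation: reporter firefly light and Renilla control light; activity is firefly divided by Renilla, a ratio not deposited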
Scale: firefly reporter light: higher = more Wg reporter light, before normalisation; Renilla control light: higher = more transfected or surviving cells
Active means: 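a knock-down is a candidate when at least two out of four statistical tests show it departing from its plate mean; one test alone signals a weak candidate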
Meaning of the calls: active = candidate regulator (raises or lowers reporter); inactive = not a candidate

{"gene": "CG42319", "reagent": 1, "firefly reporter light, replicate 1": 5316, "Renilla control light, replicate 1": 2919}
{"gene": "CG42319", "reagent": 2, "firefly reporter light, replicate 1": 4320, "Renilla control light, replicate 1": 2130}
{"gene": "CG42319", "reagent": 3, "firefly reporter light, replicate 1": 6.83e5, "firefly reporter light, replicate 2": 6.00e5, "Renilla control light, replicate 1": 2.74e5, "Renilla control light, replicate 2": 1.98e5}
{"gene": "CG42857", "reagent": 1, "firefly reporter light, replicate 1": 1895, "Renilla control light, replicate 1": 1184}
{"gene": "Cpr76Ba", "reagent": 1, "firefly reporter light, replicate 1": 13779, "Renilla control light, replicate 1": 2922}
{"gene": "Send2", "reagent": 1, "firefly reporter light, replicate 1": 2400, "firefly reporter light, replicate 2": 9445, "Renilla control light, replicate 1": 1145, "Renilla control light, replicate 2": 3192}
{"gene": "Gr47b", "reagent": 1, "firefly reporter light, replicate 1": 16769, "Renilla control light, replicate 1": 14394}
{"gene": "rad (retired record)", "reagent": 1, "firefly reporter light, replicate 1": 4023, "Renilla control light, replicate 1": 1303}
{"gene": "rad (retired record)", "reagent": 2, "firefly reporter light, replicate 1": 26633, "Renilla control light, replicate 1": 12038}
{"gene": "rad (retired record)", "reagent": 3, "firefly reporter light, replicate 1": 12506, "Renilla control light, replicate 1": 2235}
{"gene": "rad (retired record)", "reagent": 4, "firefly reporter light, replicate 1": 6.42e5, "firefly reporter light, replicate 2": 6.94e5, "Renilla control light, replicate 1": 2.15e5, "Renilla control light, replicate 2": 3.03e5}
{"gene": "CG6927", "reagent": 1, "firefly reporter light, replicate 1": 1752, "firefly reporter light, replicate 2": 8477, "Renilla control light, replicate 1": 884, "Renilla control light, replicate 2": 1410}
{"gene": "CG2617", "reagent": 1, "firefly reporter light, replicate 1": 3751, "firefly reporter light, replicate 2": 6754, "Renilla control light, replicate 1": 633, "Renilla control light, replicate 2": 1826}
{"gene": "CG42726 + CG42727", "reagent": 1, "firefly reporter light, replicate 1": 5258, "Renilla control light, replicate 1": 1735}

Reformatted: results already given
gene | reagent | reporter change call, replicate 1 | firefly reporter light, replicate 1 | firefly reporter light, replicate 2 | Renilla control light, replicate 1 | Renilla control light, replicate 2
Send2 | 1 | – | 2400 | 9445 | 1145 | 3192
Gr47b | 1 | – | 16769 | – | 14394 | –
rad (retired record) | 1 | – | 4023 | – | 1303 | –
rad (retired record) | 2 | – | 26633 | – | 12038 | –

Continued.
{"gene": "CG7985", "reagent": 1, "firefly reporter light, replicate 1": 3315, "firefly reporter light, replicate 2": 8880, "Renilla control light, replicate 1": 1735, "Renilla control light, replicate 2": 2368}
{"gene": "hry", "reagent": 1, "reporter change call, replicate 1": "Wg reporter activity raised (active)", "firefly reporter light, replicate 1": 10385, "Renilla control light, replicate 1": 1303}
{"gene": "CG13511", "reagent": 1, "firefly reporter light, replicate 1": 2400, "firefly reporter light, replicate 2": 7296, "Renilla control light, replicate 1": 864, "Renilla control light, replicate 2": 3181}
{"gene": "Atg9", "reagent": 1, "firefly reporter light, replicate 1": 9258, "Renilla control light, replicate 1": 2820}
{"gene": "CR33294", "reagent": 1, "firefly reporter light, replicate 1": 5.29e5, "firefly reporter light, replicate 2": 5.62e5, "Renilla control light, replicate 1": 2.25e5, "Renilla control light, replicate 2": 1.99e5}
{"gene": "CG2528", "reagent": 1, "firefly reporter light, replicate 1": 1562, "firefly reporter light, replicate 2": 5895, "Renilla control light, replicate 1": 603, "Renilla control light, replicate 2": 2311}
{"gene": "CG6962", "reagent": 1, "firefly reporter light, replicate 1": 5574, "Renilla control light, replicate 1": 1872}
{"gene": "AdamTS-B", "reagent": 1, "firefly reporter light, replicate 1": 2650, "Renilla control light, replicate 1": 818}
{"gene": "AdamTS-B", "reagent": 2, "firefly reporter light, replicate 1": 23627, "Renilla control light, replicate 1": 11113}
{"gene": "meng", "reagent": 1, "firefly reporter light, replicate 1": 1909, "firefly reporter light, replicate 2": 5104, "Renilla control light, replicate 1": 1248, "Renilla control light, replicate 2": 2668}
{"gene": "CG17574", "reagent": 1, "firefly reporter light, replicate 1": 8379, "Renilla control light, replicate 1": 3252}
